{
  "sequences": {"note": "Chains of the proteins cited; added tags and fusions are not shown. Lines headed by an entry give the natural chain unless they say otherwise; changes in a name come on top.", "UniProt P51450": "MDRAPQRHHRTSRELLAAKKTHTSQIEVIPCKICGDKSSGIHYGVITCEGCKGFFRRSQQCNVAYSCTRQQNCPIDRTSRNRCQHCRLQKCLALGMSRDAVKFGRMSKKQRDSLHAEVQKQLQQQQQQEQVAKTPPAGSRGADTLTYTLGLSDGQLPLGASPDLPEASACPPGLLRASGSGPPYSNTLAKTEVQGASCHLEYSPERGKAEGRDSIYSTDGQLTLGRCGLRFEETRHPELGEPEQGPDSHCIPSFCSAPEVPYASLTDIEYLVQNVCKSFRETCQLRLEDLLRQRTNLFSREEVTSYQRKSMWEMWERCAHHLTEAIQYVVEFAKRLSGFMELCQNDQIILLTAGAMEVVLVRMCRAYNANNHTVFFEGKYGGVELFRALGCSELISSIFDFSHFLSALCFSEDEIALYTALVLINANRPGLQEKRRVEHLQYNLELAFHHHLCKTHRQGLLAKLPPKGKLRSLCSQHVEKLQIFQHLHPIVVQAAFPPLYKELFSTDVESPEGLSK"},
  "source": "PubChem BioAssay AID2551",
  "about": "(National Center for Advancing Translational Sciences (NCATS), 2010)",
  "note": "In all, about 310,000 compounds went through this assay and about 17,000 (5.5%) were called active. This list was built around the results that the source calls inconclusive (neither active nor inactive); the mix of calls is not that of the screen. Calls come from the whole dose curve; as a rule, active = well fitted inhibition curve with a large enough effect; inconclusive = small, poorly fitted or top-dose-only effect, or effect the other way; inactive = no such curve, though single readings can be large or run the other way. Potencies of inconclusive entries are doubtful fits and often do not repeat. % is set by controls: 0 for no effect and ±100 for the full control effect; potency is the fitted concentration of half-maximal effect.",
  "data": [
    {"target": "Nuclear receptor ROR-gamma (Mus musculus) (UniProt P51450)", "experiment": "qHTS for inhibitors of ROR gamma transcriptional activity; note: nearly all actives have a fitted effect of over 60% in size", "details": "Drosophila S2 Gal4-RORgamma UAS-luciferase reporter, 20 h; activity change, negative = inhibition: at 53.6 µM (top of the series)", "in_short": "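Stably transfected Drosophila Schneider cells are the test system, with ROR gamma fused to Gal4 and luciferase under UAS control; luminescence is read after 20 hr of 700 uM copper sulfate induction at ambient temperature.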", "values": [
      {"smiles": "Cc1ccc(NC(=S)Nc2cccc3cnccc23)cc1C", "Potency": "inconclusive: 22.4 µM [inhibitor, single point]"},
      {"smiles": "COc1ccc(Cl)cc1NC(=O)Cn1c(=O)n2nc(C)nc2c2ccccc21", "Potency": "inconclusive: 5.01 µM [inhibitor, partial curve]"},
      {"smiles": "Cc1cccc(NC(=O)C2CCN(S(=O)(=O)c3c(C)noc3/C=C/c3ccco3)CC2)n1", "Potency": "inconclusive: 5.01 µM [activator, full curve, poor fit]"},
      {"smiles": "O=C1c2ccccc2S(=O)(=O)N1Cc1nc2ccccc2s1", "Potency": "active: 3.16 µM"},
      {"smiles": "Fc1cccc(NC(=S)NCc2ccc(Cl)cc2)c1", "Potency": "active: 6.31 µM"},
      {"smiles": "O=C(CNC(=S)N(Cc1ccccc1)Cc1cccnc1)NCc1ccccc1", "Potency": "inconclusive: 20 µM [activator, single point]"},
      {"smiles": "CCN(CC)S(=O)(=O)c1ccc2c(c1)nc(CCC(=O)Nc1cccc(C(F)(F)F)c1)n2CC", "Potency": "inactive"},
      {"smiles": "O=C(Nc1cccnc1)c1ccc(Br)c(S(=O)(=O)N2CCCC2)c1", "Potency": "inconclusive: 11.2 µM [activator, partial curve]"},
      {"smiles": "Cn1c(N=NC(=O)c2ccccc2)c(O)c2ccccc21", "Potency": "active: 8.91 µM"},
      {"smiles": "Cc1ccc(-c2nc3cccnc3s2)cc1NS(=O)(=O)c1ccc2c(c1)OCCO2", "Potency": "inconclusive: 3.98 µM [inhibitor, single point]"},
      {"smiles": "Cc1cc(C)nc(-n2nc(C)cc2NC(=O)c2ccc(F)cc2F)n1", "Potency": "active: 0.178 µM"},
      {"smiles": "O=C(Oc1c(-c2ccco2)oc2ccccc2c1=O)c1cccnc1", "Potency": "inconclusive: 25.1 µM [inhibitor, single point]"},
      {"smiles": "CC(=O)Nc1ccc(S(=O)(=O)Oc2ccc(C(=S)N3CCC(O)CC3)cc2)cc1", "Potency": "inconclusive: 35.5 µM [activator, single point]"},
      {"smiles": "COc1ccc(NC(=O)CSc2nnc(CNc3ccc(C)cc3)n2C)cc1", "Potency": "inactive"},
      {"smiles": "CC1CCN(S(=O)(=O)c2ccc3c(c2)C(=NO)c2cc(S(=O)(=O)N4CCC(C)CC4)ccc2-3)CC1", "Potency": "active: 1.78 µM"},
      {"smiles": "Cc1ccnc(NC(=O)C2CC(=O)N(c3ccc4c(c3)OCCO4)C2)c1", "note": "(stereo not given)", "Potency": "active: 7.94 µM"},
      {"smiles": "CCSc1nnc2ccc(-c3ccc(C)cc3)nn12", "Potency": "inconclusive: 35.5 µM [inhibitor, single point]"},
      {"smiles": "Nc1nc(N)c2nc(-c3ccccc3)c(N)nc2n1", "Potency": "inconclusive: 20 µM [inhibitor, single point]"},
      {"smiles": "CC(C)C[C@H](NC(=O)c1nc[nH]c1C(=O)NCCCCCNC(=O)OC(C)(C)C)C(=O)OC(C)(C)C", "Potency": "active: 3.16 µM"},
      {"smiles": "CCCCN(C(=O)NC(=O)Nc1c(C)cc(C)cc1C)S(C)(=O)=O", "Potency": "inconclusive: 22.4 µM [activator, single point]"},
      {"smiles": "Cc1[nH]n(-c2ccccc2)c(=S)c1C=Nc1cccc([N+](=O)[O-])c1", "Potency": "active: 1.78 µM"},
      {"smiles": "O=C(O)c1ccc2c(c1)CC(c1ccccc1)OC2=O", "note": "(stereo not given)", "Potency": "inactive"},
      {"smiles": "O=C(/C=C/c1ccc(F)cc1)NCC1(c2ccccc2)CCOCC1", "Potency": "inconclusive: 12.6 µM [activator, partial curve]"},
      {"smiles": "O=C(COc1ccccc1)NC(=S)Nc1ccc2c(c1)Cc1ccccc1-2", "Potency": "inconclusive: 3.55 µM [inhibitor, single point]"},
      {"smiles": "Cc1ccc(OCCC(=O)OCC(=O)Nc2ccccc2)cc1", "Potency": "inconclusive: 6.31 µM [inhibitor, full curve]"},
      {"smiles": "Cc1[nH]n(-c2ncc(-c3ccccc3)s2)c(=O)c1C(c1ccc(Cl)cc1)C(C#N)C#N", "note": "(stereo not given)", "Potency": "inconclusive: 14.1 µM [inhibitor, single point]"},
      {"smiles": "C[C@H](NC(=O)c1nc[nH]c1C(=O)N[C@@H](Cc1ccccc1)C(=O)OC(C)(C)C)C(=O)OCc1ccccc1", "Potency": "active: 7.94 µM"},
      {"smiles": "Cc1cc(=O)oc2cc(OCC(=O)N3c4ccccc4CC3C)ccc12", "note": "(stereo not given)", "Potency": "inconclusive: 0.631 µM [inhibitor, single point]"},
      {"smiles": "Cc1cccc(NC(=O)CO/N=C/c2ccc3c(c2)OCO3)c1", "Potency": "inconclusive: 35.5 µM [activator, single point]"},
      {"smiles": "N/C(=N\\S(=O)(=O)c1cccs1)c1ccccc1", "Potency": "inactive"},
      {"smiles": "CCS(=O)(=O)N1CCC(c2nc(-c3ccc(C(F)(F)F)cc3)no2)CC1", "Potency": "inconclusive: 5.62 µM [activator, single point]"},
      {"smiles": "O=c1cc(O)sc2ccccc12", "Potency": "inconclusive: 17.8 µM [activator, single point]"},
      {"smiles": "COc1ccc(OC)c(S(=O)(=O)N/N=C\\c2ccc3c(c2)OCO3)c1", "Potency": "inactive"},
      {"smiles": "O=C(Nc1ccc(N2CCN(C(=O)c3ccco3)CC2)cc1)c1ccccc1Br", "Potency": "inactive"},
      {"smiles": "CN(CC(=O)Nc1nc2ccccc2s1)S(=O)(=O)c1ccc(Br)cc1", "Potency": "inconclusive: 20 µM [inhibitor, single point]"},
      {"smiles": "CC(=O)Nc1ccc(S(=O)(=O)N2CCN(CCCOc3ccccc3Cl)CC2)cc1", "Potency": "inconclusive: 35.5 µM [activator, single point]"},
      {"smiles": "CC(C)Sc1nc2c(c(=O)[nH]c(=O)n2C)n1Cc1ccccc1", "Potency": "inconclusive: 15.8 µM [activator, single point]"},
      {"smiles": "CCCCN(CCCNC(=O)c1ccc2nc(N3CCOCC3)sc2c1)Cc1ccccc1", "Potency": "inconclusive: 5.62 µM [inhibitor, single point]"},
      {"smiles": "O=C1NC(CCc2ccccc2)C(=O)N1CCOc1ccccc1", "note": "(stereo not given)", "Potency": "inconclusive: 35.5 µM [inhibitor, single point]"},
      {"smiles": "COc1ccc(CN2CCN(C(=O)c3cccs3)CC2)cc1Br", "Potency": "inconclusive: 12.6 µM [activator, partial curve]"},
      {"smiles": "O=C(NC(=S)NN1CCCCC1c1cccnc1)c1ccc(Br)cc1", "note": "(stereo not given)", "Potency": "active: 1.12 µM"},
      {"smiles": "C=CCC1C=CC(OC(=O)OCC)C(COC(=O)OCC)O1", "note": "(stereo not given)", "activity change, negative = inhibition": "inactive: -0.0311% [at 10 µM]"},
      {"smiles": "COc1ccc(C(=O)O/N=C(\\N)Cc2ccc(Cl)cc2Cl)cc1OC", "Potency": "active: 15.8 µM"},
      {"smiles": "O=C(Nc1nnc(C2CC2)s1)C1COc2ccccc2O1", "note": "(stereo not given)", "Potency": "inconclusive: 17.8 µM [inhibitor, single point]"},
      {"smiles": "Cc1cccc(-n2nnnc2SCC(=O)c2cc(C)n(Cc3ccco3)c2C)c1", "Potency": "inconclusive: 11.2 µM [activator, single point]"}
    ]}
  ]
}
